Values quoted from earlier work as cited in patent US20050049293A1, “Use of cholinesterase antagonists to treat insulin resistance” (priority 2002, published 2005).

What was measured:
[1] = system: hepatic uptake of glucose; conditions: after atropine; reduced from 80%; cited from earlier work
[2] = system: glucose uptake across organs; conditions: cats, following atropine; cited from earlier work

Structure (SMILES): CN1[C@@H]2CC[C@H]1C[C@@H](OC(=O)C(CO)c1ccccc1)C2 (stereo partly drawn) [atropine]
- Proportion of glucose sequestered by the liver following oral administration [1]: 44%
- Glucose uptake across the hindlimbs (skeletal muscle) in response to insulin [2]: decreased
- Hepatic glucose response to insulin [2]: not notably altered
